# From patent US20200222474A1, “COMPOSITIONS AND METHODS FOR INCREASING PHYTOCHEMICAL BIOAVAILABLITY AND BIOACTIVITY” (North Carolina State University, priority 2017, published 2020)
# This continues a long series; more values of the same kind are listed elsewhere.
# Test system: L. acidophilus NCFM
# Test: RNA-seq transcriptional analysis of L. acidophilus NCFM growing on plant glycosides
# Type: cell-based, Lactobacillus acidophilus
# [1] = LBA1974 Pyruvate oxidase, COG EH
# [2] = gene LBA0802 (Hypothetical protein)
# [3] = gene LBA0863 (Hypothetical protein)
# [4] = gene LBA0878 (Hypothetical protein)
# [5] = gene LBA0888 (Hypothetical protein)
# [6] = gene LBA0987 (Hypothetical protein)
# [7] = gene LBA1019 (Mucus binding protein)
# [8] = gene LBA1020 (Mucus binding protein)
# [9] = gene LBA1227 (Hypothetical protein)
# [10] = gene LBA1370 (Putative bacteriophage-related protein)
# [11] = gene LBA1409 (Hypothetical protein LBA1409)
# [12] = gene LBA1460 (Mucus binding protein precursor)
# [13] = gene LBA1461 (Putative regulator)
# [14] = gene LBA1539 (Hypothetical protein)
# [15] = gene LBA1608 (Hypothetical protein)
# [16] = gene LBA1612 (Fibrinogen-binding protein)
# [17] = gene LBA1652 (Mucus binding protein precursor Mub)
# [18] = gene LBA1655 (Hypothetical protein)
# [19] = gene LBA1686 (Hypothetical protein)
# [20] = gene LBA1693 (Hypothetical protein)
# [21] = gene LBA1694 (Hypothetical protein)
# [22] = gene LBA1709 (Mucus binding protein precursor Mub)
# [23] = gene LBA1784 (Hypothetical protein)
# [24] = gene LBA1786 (Hypothetical protein)
# [25] = gene LBA1791 (Hypothetical protein)
# [26] = gene LBA1792 (Hypothetical protein)
# [27] = gene LBA1794 (Gassericin K7 B accessory protein)
# [28] = gene LBA1797 (Hypothetical protein)
# [29] = gene LBA1801 (Hypothetical protein)
# [30] = gene LBA1802 (Hypothetical protein)
# [31] = gene LBA1803 (Hypothetical protein.)
# [32] = gene LBA1804 (Hypothetical protein)
# [33] = gene LBA1805 (Hypothetical protein)
# [34] = gene without printed locus tag, last line of Table 5 (Hypothetical protein)
smiles,measurement,setting,value
OCc1ccccc1O[C@@H]1O[C@H](CO)[C@@H](O)[C@H](O)[C@H]1O [Salicin],Log2 differential normalized TPM ratio compared to glucose,[1],1.8
same,Log2 differential normalized TPM ratio compared to lactose,[1],−0.6
same,Transcripts per million (rpm),[1],306.8 rpm
same,Log2 differential normalized TPM ratio compared to glucose,[2],0
same,Transcripts per million (rpm),[2],35.1 rpm
same,Log2 differential normalized TPM ratio compared to glucose,[3],0.2
same,Log2 differential normalized TPM ratio compared to lactose,[3],−0.6
same,Transcripts per million (rpm),[3],58.6 rpm
same,Log2 differential normalized TPM ratio compared to glucose,[4],1.5
same,Log2 differential normalized TPM ratio compared to lactose,[4],0.3
same,Transcripts per million (rpm),[4],10.9 rpm
same,Log2 differential normalized TPM ratio compared to glucose,[5],1.3
same,Log2 differential normalized TPM ratio compared to lactose,[5],0.2
same,Transcripts per million (rpm),[5],76.2 rpm
same,Log2 differential normalized TPM ratio compared to glucose,[6],2.7
same,Log2 differential normalized TPM ratio compared to lactose,[6],−0.3
same,Transcripts per million (rpm),[6],294.5 rpm
same,Log2 differential normalized TPM ratio compared to glucose,[7],1
same,Log2 differential normalized TPM ratio compared to lactose,[7],0
same,Transcripts per million (rpm),[7],26.5 rpm
same,Log2 differential normalized TPM ratio compared to glucose,[8],−0.5
same,Log2 differential normalized TPM ratio compared to lactose,[8],−0.6
same,Transcripts per million (rpm),[8],106.2 rpm
same,Log2 differential normalized TPM ratio compared to glucose,[9],0.7
same,Log2 differential normalized TPM ratio compared to lactose,[9],0.2
same,Transcripts per million (rpm),[9],117.3 rpm
same,Log2 differential normalized TPM ratio compared to glucose,[10],0.9
same,Log2 differential normalized TPM ratio compared to lactose,[10],0.4
same,Transcripts per million (rpm),[10],73.1 rpm
same,Log2 differential normalized TPM ratio compared to glucose,[11],0.7
same,Log2 differential normalized TPM ratio compared to lactose,[11],0
same,Transcripts per million (rpm),[11],7.3 rpm
same,Log2 differential normalized TPM ratio compared to glucose,[12],−0.4
same,Log2 differential normalized TPM ratio compared to lactose,[12],−4.6
same,Transcripts per million (rpm),[12],7.9 rpm
same,Log2 differential normalized TPM ratio compared to glucose,[13],0.3
same,Log2 differential normalized TPM ratio compared to lactose,[13],−4.6
same,Transcripts per million (rpm),[13],7.3 rpm
same,Log2 differential normalized TPM ratio compared to glucose,[14],1.8
same,Log2 differential normalized TPM ratio compared to lactose,[14],−0.9
same,Transcripts per million (rpm),[14],86.5 rpm
same,Log2 differential normalized TPM ratio compared to glucose,[15],1.1
same,Log2 differential normalized TPM ratio compared to lactose,[15],0.4
same,Transcripts per million (rpm),[15],46.3 rpm
same,Log2 differential normalized TPM ratio compared to glucose,gene LBA1611 (Surface protein),0.8
same,Log2 differential normalized TPM ratio compared to lactose,gene LBA1611 (Surface protein),1.3
same,Transcripts per million (rpm),gene LBA1611 (Surface protein),294.6 rpm
same,Log2 differential normalized TPM ratio compared to glucose,[16],0.8
same,Log2 differential normalized TPM ratio compared to lactose,[16],0.7
same,Transcripts per million (rpm),[16],238.7 rpm
same,Log2 differential normalized TPM ratio compared to glucose,gene LBA1633 (Surface protein),0.9
same,Log2 differential normalized TPM ratio compared to lactose,gene LBA1633 (Surface protein),−0.3
same,Transcripts per million (rpm),gene LBA1633 (Surface protein),14.1 rpm
same,Log2 differential normalized TPM ratio compared to glucose,[17],1
same,Log2 differential normalized TPM ratio compared to lactose,[17],0.4
same,Transcripts per million (rpm),[17],23.6 rpm
same,Log2 differential normalized TPM ratio compared to glucose,[18],0.5
same,Log2 differential normalized TPM ratio compared to lactose,[18],0.2
same,Transcripts per million (rpm),[18],6.1 rpm
same,Log2 differential normalized TPM ratio compared to glucose,[19],−0.9
same,Log2 differential normalized TPM ratio compared to lactose,[19],−0.6
same,Transcripts per million (rpm),[19],100.9 rpm
same,Log2 differential normalized TPM ratio compared to glucose,[20],0.1
same,Log2 differential normalized TPM ratio compared to lactose,[20],−0.9
same,Transcripts per million (rpm),[20],120.8 rpm
same,Log2 differential normalized TPM ratio compared to glucose,[21],−0.2
same,Log2 differential normalized TPM ratio compared to lactose,[21],−1.2
same,Transcripts per million (rpm),[21],74.1 rpm
same,Log2 differential normalized TPM ratio compared to glucose,[22],0.5
same,Log2 differential normalized TPM ratio compared to lactose,[22],0.1
same,Transcripts per million (rpm),[22],3.9 rpm
same,Log2 differential normalized TPM ratio compared to glucose,[23],0.4
same,Log2 differential normalized TPM ratio compared to lactose,[23],−1.6
same,Transcripts per million (rpm),[23],58.6 rpm
same,Log2 differential normalized TPM ratio compared to glucose,[24],0.6
same,Log2 differential normalized TPM ratio compared to lactose,[24],−1.6
same,Transcripts per million (rpm),[24],38.1 rpm
same,Log2 differential normalized TPM ratio compared to glucose,[25],0.1
same,Log2 differential normalized TPM ratio compared to lactose,[25],−2.1
same,Transcripts per million (rpm),[25],20.1 rpm
same,Log2 differential normalized TPM ratio compared to glucose,[26],0.6
same,Log2 differential normalized TPM ratio compared to lactose,[26],−1.8
same,Transcripts per million (rpm),[26],21.9 rpm
same,Log2 differential normalized TPM ratio compared to glucose,[27],0.5
same,Log2 differential normalized TPM ratio compared to lactose,[27],−1.8
same,Transcripts per million (rpm),[27],20.8 rpm
same,Log2 differential normalized TPM ratio compared to glucose,[28],1.3
same,Log2 differential normalized TPM ratio compared to lactose,[28],−3.6
same,Transcripts per million (rpm),[28],326.4 rpm
same,Log2 differential normalized TPM ratio compared to glucose,[29],0.8
same,Log2 differential normalized TPM ratio compared to lactose,[29],−1.7
same,Transcripts per million (rpm),[29],7.6 rpm
same,Log2 differential normalized TPM ratio compared to glucose,[30],0.7
same,Log2 differential normalized TPM ratio compared to lactose,[30],−1.9
same,Transcripts per million (rpm),[30],12.4 rpm
same,Log2 differential normalized TPM ratio compared to glucose,[31],0.7
same,Log2 differential normalized TPM ratio compared to lactose,[31],−2.4
same,Transcripts per million (rpm),[31],21.6 rpm
same,Log2 differential normalized TPM ratio compared to glucose,[32],0.7
same,Log2 differential normalized TPM ratio compared to lactose,[32],−3
same,Transcripts per million (rpm),[32],30.7 rpm
same,Log2 differential normalized TPM ratio compared to glucose,[33],1
same,Log2 differential normalized TPM ratio compared to lactose,[33],−2.9
same,Transcripts per million (rpm),[33],61.1 rpm
same,Log2 differential normalized TPM ratio compared to glucose,[34],0.4
same,Log2 differential normalized TPM ratio compared to lactose,[34],0.2
same,Transcripts per million (rpm),[34],25.3 rpm
